# Experimental data reported in the supplement of paper PMC10689618.
# Structures can show the parent of a compound that is named as a salt. This is one part of the list. Single values are uncertain, as repeats are few or missing.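 Labelled rat cortical synaptosomes were engulfed by primary human fetal astrocytes. Engulfment equaled a red/green ratio, corrected for calcein live-cell signal and normalized to the plate median. Compounds were toxic when calcein dropped over 30%, and reduced phagocytosis when below 70% of the median above 5 µM.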
# Key:
# Human fetal astrocytes [1] = experiment: loss of total cells relative to no-compound high-control median (toxicity); higher = more toxic (fewer cells); details: 24 h
# Human fetal astrocytes [2] = experiment: synaptosome phagocytosis (pHrodo/calcein intensity ratio) relative to plate median of data wells; higher = more phagocytosis; details: 24 h
Structure (SMILES),loss of total cells (Human fetal astrocytes [1]; 1.39 µM) [%],loss of total cells (Human fetal astrocytes [1]; 2.78 µM) [%],loss of total cells (Human fetal astrocytes [1]; 5.56 µM) [%],loss of total cells (Human fetal astrocytes [1]; 11.11 µM) [%],loss of total cells (Human fetal astrocytes [1]; 22.22 µM) [%],synaptosome phagocytosis (Human fetal astrocytes [2]; 1.39 µM) [%],synaptosome phagocytosis (Human fetal astrocytes [2]; 2.78 µM) [%],synaptosome phagocytosis (Human fetal astrocytes [2]; 5.56 µM) [%],synaptosome phagocytosis (Human fetal astrocytes [2]; 11.11 µM) [%],synaptosome phagocytosis (Human fetal astrocytes [2]; 22.22 µM) [%]
Cc1c(O)c(O)cc2c1CC=C1[C@@]2(C)CC[C@@]2(C)[C@@H]3C[C@](C)(C(=O)O)CC[C@]3(C)CC[C@]12C,10.5,17,15.9,58.2,72.7,140,115,88.3,26.4,6.3
COc1ccc(Cc2nccc3cc(OC)c(OC)cc23)cc1OC [Papaverine hydrochloride],16.6,-0.9,1.5,14.8,11.9,89.2,86.5,74.9,69.4,77.2
CC[C@H]1CN2CC[C@H]1C[C@@H]2[C@@H](O)c1ccnc2ccc(OC)cc12,11.9,6.1,8,-7.1,8.3,114,123,48,80.7,89.2
CN=C1CN(O)C(c2ccccc2)=c2cc(Cl)ccc2=N1,-11.2,-4,-26,7.1,-15.2,91.5,89.9,75.5,92.7,95.9
CC[C@H]1CN2CC[C@H]1C[C@H]2[C@H](O)c1ccnc2ccc(OC)cc12,8.3,7.6,8,13.8,18.2,130,66.3,67.9,94.6,113
"CC1(C)C(=O)[C@@H]2O[C@@H]2[C@@]2(C)C1C[C@@H](O)[C@]1(C)C2CC[C@@]2(C)[C@H](c3ccoc3)OC(=O)C3OC321 (stereo partly drawn) [1,2alpha-EPOXYDEACETOXYDIHYDROGEDUNIN]",-27.9,-3.3,45.8,1.3,-4.8,88.3,92.2,140,100,116
COc1ccc(/C=C/c2cc(O)cc(O)c2)cc1,-13.9,8.3,-1.5,23,11.9,116,93.4,117,101,101
CCC(C)C(=O)O[C@@H]1C[C@@]2(C)[C@H](c3ccoc3)OC(=O)CC23OC2(C)O[C@]14[C@]1(C)[C@@H](CC(=O)OC)C5(C)CC1(O)[C@](O)(C5OC(=O)C1(C)OC1C)[C@@H](OC(C)=O)[C@]34O2 (stereo not given in full),-3.3,12,34.4,-3.2,33.7,110,103,133,98.1,126
c1ccc2c(c1)sc1ccccc12,13.9,-31.5,-3.5,1.4,17.9,110,112,141,93.6,80.6
NC(=O)C[S+]([O-])C(c1ccccc1)c1ccccc1 (stereo not given) [Modafinil],4.1,-20.4,7.5,-29.7,14.2,122,91.7,85,117,89.5
C[N+]12CCC(CC1)C(OC(=O)C(O)(c1ccccc1)c1ccccc1)C2 (stereo not given),5.6,-19.3,4.9,-29.7,-8.2,132,98.3,111,119,100
CC(C)(O)[C@@H]1[C@H]2OC(=O)[C@@H]1[C@]1(O)C[C@H]3O[C@]34C(=O)O[C@H]2[C@]14C (relative stereo),-28.6,-2.7,-3.8,0,2.6,133,106,80.8,123,89.3
COc1cc2c(cc1OC)[C@@H]1C(=O)c3ccc4c(c3O[C@@H]1CO2)CC(C(C)C)O4 (stereo not given in full),37.2,37.2,25.4,26.4,50.8,77.7,55.5,94.2,86.7,107
CN1CCc2cc3c(cc2C1O)OCO3 (stereo not given),10.5,-1.1,3.6,2.1,2.3,86.9,98.4,102,114,116
Oc1ccc2c3c1O[C@H]1[C@@H](O)CC[C@@]4(O)[C@@H](C2)N(CC2CCC2)CC[C@]314,-26.6,-20.4,-17.1,-16.4,-5.7,103,94.3,94.7,96.8,82.7
CC(=O)[C@H]1CC[C@H]2[C@@H]3CC[C@H]4C[C@H](O)CC[C@]4(C)[C@H]3C(=O)C[C@]12C,16.2,15.5,9.4,17.2,12.9,138,99.4,124,132,99.3
CC(=O)[O][Hg][c]1ccccc1,96.4,99.3,105,101,104,0,0,0,0,0
O=C1CCO1,-26.6,21.4,7.5,49.5,7.2,56.2,99.8,78.6,113,107
COP(=O)(OC)OC=C(Cl)Cl,-4.1,18.6,-1.5,-17.2,11.9,109,107,124,166,110
c1ccc2c(c1)[nH]c1cnccc12,4.7,11.2,15.2,-10.5,22,94.1,89.8,103,106,139
CC(C)(C#N)O[C@@H]1O[C@H](CO)[C@@H](O)[C@H](O)[C@H]1O,-18,8.3,5.1,2.7,-7.4,80.4,102,111,76.3,113

Structure (SMILES),loss of total cells (Human fetal astrocytes [1]; 1.39 µM) [%],loss of total cells (Human fetal astrocytes [1]; 2.78 µM) [%],loss of total cells (Human fetal astrocytes [1]; 5.56 µM) [%],loss of total cells (Human fetal astrocytes [1]; 11.11 µM) [%],loss of total cells (Human fetal astrocytes [1]; 22.22 µM) [%],synaptosome phagocytosis (Human fetal astrocytes [2]; 1.39 µM) [%],synaptosome phagocytosis (Human fetal astrocytes [2]; 2.78 µM) [%],synaptosome phagocytosis (Human fetal astrocytes [2]; 5.56 µM) [%],synaptosome phagocytosis (Human fetal astrocytes [2]; 11.11 µM) [%],synaptosome phagocytosis (Human fetal astrocytes [2]; 22.22 µM) [%]
CC1(C)C2CC(=O)[C@]3(C)C(CC[C@@]4(C)[C@H](c5ccoc5)OC(=O)[C@H]5O[C@]543)[C@@]2(C)C(=O)C[C@H]1O (stereo not given in full),-17.8,12,-9.2,1.9,1.1,104,104,119,93.7,81.5
C[C@]12CC[C@H](O)C[C@H]1CC[C@@H]1[C@@H]2C[C@@H](O)[C@]2(C)[C@@H](C3=CC(=O)OC3)CC[C@]12O,26.4,-5.3,-3.8,43.2,8.5,180,115,86.9,42.5,45.8
C[C@@]12C(=O)OC(=O)[C@]1(C)[C@H]1CC[C@@H]2O1,-2.5,24.9,27.5,57.3,46.2,84.5,109,70.1,12.9,11.1
O=C(O)CCCOc1ccc(Cl)cc1Cl,8.3,8.3,0,-4.6,0,92.2,96,140,81.2,57.7
NCCc1cc(O)c(O)cc1O,7.4,-24.7,11.8,48.7,4,108,68.3,100,84.8,44.1
COc1ccc2c3c([nH]c2c1)C(C)=NCC3,19.9,17,-63,5.4,15.9,13.3,75.5,0,63,65.8
[O-][n+]1ccccc1[S-].[O-][n+]1ccccc1[S-].[Zn+2],49,62.7,64.1,93.1,98.8,51.1,16.5,4.2,0,0
"COc1cc(OC)c2c(c1)O[C@H](c1ccc(OC)c(OC)c1)[C@@H](O)C2 [2-(3,4-dimethoxyphenyl)-5,7-dimethoxy-3-chromanol]",-18.5,5.3,-16,-6.5,-15.2,80.4,112,71.7,91.1,124
C[C@@H]1CC[C@@]2(OC1)O[C@H]1[C@@H](O)[C@H]3[C@@H]4CC[C@H]5C[C@@H](O[C@@H]6O[C@H](CO)[C@H](O[C@@H]7O[C@H](CO)[C@@H](O)[C@H](O[C@@H]8OC[C@@H](O)[C@H](O)[C@H]8O)[C@H]7O[C@@H]7O[C@H](CO)[C@H](O)[C@H](O[C@@H]8O[C@H](CO)[C@@H](O)[C@H](O)[C@H]8O)[C@H]7O)[C@H](O)[C@H]6O)[C@H](O)C[C@]5(C)[C@H]4CC[C@]3(C)[C@H]1[C@@H]2C,-28.6,4,-5.3,3.2,0.4,85.7,113,103,100,71.6
C[C@@H]1CC[C@]2(NC1)O[C@H]1C[C@H]3[C@@H]4CC=C5C[C@@H](O)CC[C@]5(C)[C@H]4CC[C@]3(C)[C@H]1[C@@H]2C [Solasodine hydrochloride],11.2,1.3,0.8,43.9,3.3,123,125,85.4,123,129
C[C@H]1O[C@@H](O[C@H]2[C@@H](O)C[C@H](O[C@H]3[C@@H](O)C[C@H](O[C@H]4CC[C@@]5(C)[C@H](CC[C@@H]6[C@@H]5CC[C@]5(C)[C@@H](C7=CC(=O)OC7)[C@@H](O)C[C@]65O)C4)O[C@@H]3C)O[C@@H]2C)C[C@H](O)[C@@H]1O,11.2,18.4,18.1,11.3,-0.8,39.1,43.5,38,42.2,58.7
CCC(COC(=O)c1cc(OC)c(OC)c(OC)c1)(c1ccccc1)N(C)C (stereo not given),-2.5,-62.5,8,-16.3,7.6,106,3.8,126,126,110
c1cc2c(cc1[C@H]1OC[C@H]3[C@@H]1CO[C@H]3c1ccc3c(c1)OCO3)OCO2,-1.6,10.5,11.7,4.1,4.4,99.3,109,112,81,113
C=C(C)[C@H]1CN[C@H](C(=O)O)[C@H]1CC(=O)O,19.9,18.4,5.8,-15.5,21.2,144,120,115,95.6,102
C[C@]12CC[C@H]3[C@@H](CCC4=CC(=O)CC[C@@]43C)[C@@H]1CC[C@H]2O,-15.6,0.4,5.9,27,2.2,66.5,117,117,125,140
CC(C)c1ccc2c(c1O)CC[C@H]1C3=C(CC[C@]21C)C(=O)OC3,-21.3,-23.5,-2.2,16.2,-0.7,69.8,54.5,57.1,32.1,21.9
CC(Oc1ccc(Cl)cc1Cl)C(=O)O (stereo not given),21.3,1.1,10.9,2.1,0,73.7,70.1,83.2,105,42.9
C[N+]1([O-])[C@@H]2CC[C@H]1CC(OC(=O)C(CO)c1ccccc1)C2 (stereo not given in full),-30.7,0.3,-12.9,-21.9,1.1,65,91.4,77.6,136,75.4
CN1C2CC(=O)CC1C(O)C2 (stereo not given),22.7,14.1,22.5,1.3,30.3,141,103,128,112,118
COc1cc([C@@H]2c3cc4c(cc3[C@H](O)[C@H]3COC(=O)[C@H]23)OCO4)cc(OC)c1OC,28.2,25.3,30.3,27.3,37.4,76.5,102,69.5,116,106
COc1cc2c(cc1O)C[C@H]1c3c(cc(O)c(OC)c3-2)CCN1C,-22.1,-5.4,8.1,10.1,5.2,110,69.9,102,91.2,77.5

# Entries of single compounds from above. Values in the order: loss of total cells (Human fetal astrocytes [1]; 1.39 µM) [%] | loss of total cells (Human fetal astrocytes [1]; 2.78 µM) [%] | loss of total cells (Human fetal astrocytes [1]; 5.56 µM) [%] | loss of total cells (Human fetal astrocytes [1]; 11.11 µM) [%] | loss of total cells (Human fetal astrocytes [1]; 22.22 µM) [%] | synaptosome phagocytosis (Human fetal astrocytes [2]; 1.39 µM) [%] | synaptosome phagocytosis (Human fetal astrocytes [2]; 2.78 µM) [%] | synaptosome phagocytosis (Human fetal astrocytes [2]; 5.56 µM) [%] | synaptosome phagocytosis (Human fetal astrocytes [2]; 11.11 µM) [%] | synaptosome phagocytosis (Human fetal astrocytes [2]; 22.22 µM) [%]
# C=C(C)[C@H]1CN[C@H](C(=O)O)[C@H]1CC(=O)O is listed as 19.9 | 18.4 | 5.8 | -15.5 | 21.2 | 144 | 120 | 115 | 95.6 | 102
# CN1CCc2cc3c(cc2C1O)OCO3 (stereo not given) is listed as 10.5 | -1.1 | 3.6 | 2.1 | 2.3 | 86.9 | 98.4 | 102 | 114 | 116
